The values below come from the odorant receptor screen of Mainland et al. (2015).

Holding throughout (experiment): odorant receptor activation (CRE luciferase / Renilla) (fold of no-odor wells); higher = more activation
What all share (conditions): 100 µM

Experiment [1] relates to OR5H6 clone 1470.
Experiment [2] deals with OR5I1 clone 1146.
Experiment [3] relates to OR5J2 clone 1241.
Experiment [4] concerns OR5K1 clone 1502.
The subject of experiment [5] is OR5K2 clone 1068.
Experiment [6] relates to OR5K3 clone 1514.
In experiment [7] the test system is OR5K4 I206V clone 1729.
Experiment [8] deals with OR5L1 clone 1204.
The subject of experiment [9] is OR5L1 clone 1383.
In experiment [10] the test system is OR5L1 clone 1720.

Several values for one entry are separate records, joined by “and”; a condition that tells them apart may be missing. Identical values can stand only once. This is one part of the list. Each value is one well over the wells without odorant, computed here; the data are noisy.

For `O=C1CCCCCCCCCCCC(=O)OCCO1` [ethylene brassylate], the odorant receptor activation came out at 1.23 in [1]; 1.78 in [2]; 2.03 in experiment [3]; 1.1 in experiment [4]; 1.31 in experiment [5]; 1.51 in experiment [6]. The odorant receptor activation in [7] was found to be 0.981; in [8], 1.75; in experiment [9], 1.96; in [10], 0.813.

As for `CC12C=CCC1C1CCC3=CC(=O)CCC3(C)C1CC2` (centres undefined) [androstadienone], the odorant receptor activation was 0.855 and 1.51 in experiment [1]; 1.07 in experiment [2]; 0.973 and 1.61 in experiment [4]; 2.78 in experiment [5]; 0.997 and 1.15 in experiment [6]; 1.23 in experiment [8]. In [9], this molecule had an odorant receptor activation of 0.817.

Take `CC(C)(C)c1ccc(CCC=O)cc1` [bourgeonal]: the odorant receptor activation was determined as 0.803 in experiment [1]; 0.724 in [2]; 0.728 in [4]; 0.74 in [5]; 0.87 in experiment [6]; 0.64 in experiment [8]. This molecule gave an odorant receptor activation in experiment [9] of 0.181.

Turning to `C=C(C)C1CCC2=CC(=O)CC(C)C2(C)C1` (centres undefined) [amyl laurate], the odorant receptor activation in experiment [3] was 1.04; in [7] it was 1.29; in experiment [10] it was 0.939.

`CC12C=CCC1C1CCC3CC(=O)CCC3(C)C1CC2` (centres undefined) [androstenone]: the odorant receptor activation came out at 0.928 in experiment [1]; 5.86 in [2]; 1.17 in [4]; 4.41 in experiment [5]; 0.846 in experiment [6]; 5.04 in experiment [8]. The molecule also displayed an odorant receptor activation in experiment [9] of 0.606.

Take `CC1COCc2cc3c(cc21)C(C)(C)C(C)C3(C)C` (centres undefined) [galaxolide]: the odorant receptor activation is 0.849 in experiment [2]; 0.356 and 0.998 in [3]; 0.867 and 1.67 in experiment [4]; 3.75 in experiment [5]; 6.2 and 4.59 in experiment [6]; 3.34 in [8]. Besides, the odorant receptor activation in experiment [9] is 4.26; in experiment [10], 0.906 and 0.496.

`CCCCCCCCCC=O` [decyl aldehyde]: the odorant receptor activation came to 1.07 in [1]; 1.31 in experiment [2]; 1.09 in experiment [3]; 1.25 in experiment [4]; 1.06 in experiment [5]; 1.34 in [6]. The odorant receptor activation was determined as 0.654 in experiment [7], 1.18 in experiment [8], 1.44 in [9] and 0.474 in experiment [10].

`CCCC(=O)O` [butyric acid]: the odorant receptor activation in experiment [1] is 0.951; in experiment [2], 0.949; in [3] it was 1.17; in experiment [4], 0.892; in [5], 1.06; in [6], 1.13. The odorant receptor activation in [7] was 1.3; in [8], 0.893; in experiment [9], 0.212; in [10] it was 0.746.

Turning to `CCCCCCOC(=O)CCC` [hexyl butyrate], the odorant receptor activation in experiment [1] was 1.07 and 0.805; in experiment [2], 0.929; in experiment [3], 0.843; in experiment [4], 1.02 and 0.921; in [5] it was 0.627; in experiment [6] it was 0.779 and 0.755. Moreover, the odorant receptor activation in experiment [7] came out at 1; in [8], 0.897; in [9], 0.801; in [10] it was 0.875.

With `CCCCCC(C)=O` [2-heptanone], the odorant receptor activation in [1] is 0.945 and 0.648; in experiment [2] it was 1.21; in experiment [4], 1.04 and 0.733; in [5], 1.52; in experiment [6], 1.23 and 0.504; in experiment [8] it was 1.18. Moreover, in experiment [9], the odorant receptor activation came to 0.772.

For the molecule `COc1cc(C=O)ccc1O` [vanillin], the odorant receptor activation in experiment [1] stood at 1.02; in experiment [2], 0.988; in experiment [3] it was 0.944; in experiment [4], 1.05; in experiment [5], 0.66; in experiment [6] it was 0.849. Further, the odorant receptor activation turned out to be 1.24 in experiment [7], 1.38 in [8], 1.15 in experiment [9] and 0.532 in experiment [10].

On to `CC1=NC(C)SC1C` (centres undefined), for which the odorant receptor activation was 0.994 and 1.03 in experiment [1]; 0.797 in [2]; 1.24 and 1.55 in [4]; 0.723 in experiment [5]; 1.37 and 0.567 in [6]; 1.02 in experiment [8]. Moreover, the odorant receptor activation in [9] was found to be 0.939.

`CC1CCC(C(C)C)C(O)C1` (single isomer, unassigned; (+)) [(+)-menthol]: the odorant receptor activation in experiment [1] is 0.961; in experiment [2], 1.59; in experiment [3], 0.786; in [4] it was 1.26; in experiment [5] it was 5.76; in experiment [6] it was 0.923. Moreover, the odorant receptor activation in [7] was found to be 1.1; in [8] it was 1.18; in [9], 0.769; in [10], 1.13.

For the molecule `C=CCc1ccc(O)c(OC)c1` [eugenol], the odorant receptor activation is 1.46 and 1 and 1.01 in [1]; 2.77 and 1.66 in experiment [2]; 1.24 in experiment [3]; 1.22 and 1.08 and 1.34 in experiment [4]; 1.17 and 1.37 in experiment [5]; 1.56 and 1 and 1.1 in experiment [6]. Further, the odorant receptor activation is 0.63 in [7]; 1.63 and 1.1 in [8]; 1.31 and 1.24 in [9]; 0.8 in [10].

With `CCCCCCCOC(C)=O` [heptyl acetate], the odorant receptor activation is 0.751 and 1.17 in experiment [1]; 0.951 in [2]; 0.837 in [3]; 0.829 and 1.46 in [4]; 1.39 in [5]; 0.81 and 1.2 in experiment [6]. Besides, the odorant receptor activation was 0.806 in [7], 0.949 in [8], 0.922 in [9] and 0.708 in experiment [10].

Regarding `CC(C)(O)CCCC1=CCC(C=O)CC1` (centres undefined) [lyral], the odorant receptor activation in experiment [3] worked out at 1.06; in experiment [7], 0.963; in [10], 1.13.
